# The other results are listed elsewhere or left out.
# Legend:
# Assay in all cases: protein microarray (ProtoArray v5.0), streptavidin-Alexa Fluor 647
# Conditions in all cases: 3'-biotin; 20 mM Tris (pH 7.5), 5 mM MgCl2, 100 mM KCl, 0.1% Tween-20, A/T-rich and random oligonucleotide blockers; temperature not stated; high values mean tight binding
# [1] = tested on: Deoxycytidine kinase (human)
# [2] = tested on: Deoxycytidylate deaminase (human)
# [3] = tested on: Diacylglycerol kinase epsilon (human)
# [4] = tested on: Differentially expressed in FDCP 6 homolog (human)
# [5] = tested on: Dihydroorotate dehydrogenase, mitochondrial (human)
# [6] = tested on: Diphosphoinositol polyphosphate phosphohydrolase 3-alpha (human)
# [7] = tested on: Docking protein 6 (human)
# [8] = tested on: Dolichol-phosphate mannosyltransferase subunit 3 (human)
# [9] = tested on: Double C2-like domain-containing protein alpha (human)
# [10] = tested on: Down syndrome critical region protein 8 (human)
sequence,measurement,setting,value
GGGAGGCTGAGGCAGG [G4-1 biotinylated (PQS2)],binding signal,[1],-0.343 z-score
same,binding signal,[2],-0.31 z-score
same,binding signal,[3],-0.301 z-score
same,binding signal,[4],-0.361 z-score
same,binding signal,[5],-0.331 z-score
same,binding signal,[6],-0.286 z-score
same,binding signal,[7],-0.312 z-score
same,binding signal,[8],-0.281 z-score
same,binding signal,[9],-0.265 z-score
same,binding signal,[10],-0.344 z-score

# Looked up one by one from the list above, 2 records:
sequence,measurement,setting,value
GGGAGGCTGAGGCAGG [G4-1 biotinylated (PQS2)],binding signal,[7],-0.312 z-score
same,binding signal,[3],-0.301 z-score

# — publication PMC5996148
